The whole screen tested about 410,000 compounds, of which about 310 (0.076%) were called active. Inconclusive means that the source gave no clear call. Such entries were picked first, then a sample of the others. Calls follow the shape of the dose curve; as a rule, active = well fitted activation curve with a large enough effect; inconclusive = small, poorly fitted or top-dose-only effect, or another doubt; inactive = no such curve, though single readings can be large or run the other way. Potencies beside an inconclusive call are fits to weak or partial responses and may not hold up.
biological target: Parathyroid hormone/parathyroid hormone-related peptide receptor (Homo sapiens) (UniProt Q03431); assay: qHTS for PTHR1 Agonists: Primary Screen; conditions: HEK293 GP2 PTHR1 cells, GloSensor cAMP luminescence, 1 h; activation: at 115 µM (top of the series) unless noted; series mostly up to 115 µM; also: nearly all actives have a fitted effect of over 55% in size
In short: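 HEK-293-derived GP2 cells expressing PTHR1 and a GloSensor cAMP reporter, 3,000/well, plated overnight, given luciferin plus IBMX (each 0.5 mM as added) for 1 h at 37 °C, then compound for 1 h at 37 °C. Luminescence was read after 15 min at room temperature.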
Potency is read from the fitted curve at half-maximal effect.

The chains behind the UniProt entries cited, without tags or fusion partners.
UniProt Q03431, whole entry, looked up: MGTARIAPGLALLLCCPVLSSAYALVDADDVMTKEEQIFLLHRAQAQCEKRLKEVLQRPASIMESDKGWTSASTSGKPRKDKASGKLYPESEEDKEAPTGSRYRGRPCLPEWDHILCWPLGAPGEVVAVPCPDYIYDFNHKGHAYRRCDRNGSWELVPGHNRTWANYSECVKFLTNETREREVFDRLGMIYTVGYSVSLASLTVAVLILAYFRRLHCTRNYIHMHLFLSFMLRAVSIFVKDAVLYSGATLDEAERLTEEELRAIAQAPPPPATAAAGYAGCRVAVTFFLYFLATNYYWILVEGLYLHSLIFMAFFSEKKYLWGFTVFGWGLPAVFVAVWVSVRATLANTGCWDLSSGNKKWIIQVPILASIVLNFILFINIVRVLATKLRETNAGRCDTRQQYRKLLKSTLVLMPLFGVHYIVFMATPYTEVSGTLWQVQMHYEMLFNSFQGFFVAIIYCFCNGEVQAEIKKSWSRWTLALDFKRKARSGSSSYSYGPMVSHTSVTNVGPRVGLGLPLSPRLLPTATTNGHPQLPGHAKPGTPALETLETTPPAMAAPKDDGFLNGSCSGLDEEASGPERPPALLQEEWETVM

Compound	Potency	activation
Cc1ccc(-c2nnc(C3CCN(S(=O)(=O)c4ccc(C)c(C)c4)CC3)o2)cc1	inactive	
CN1CCCC(C)(C(=O)Nc2ccc3scnc3c2)C1 (stereo not given)	inactive	
Cn1cc(/C=C2\SC(=O)NC2=S)c2ccccc21	inconclusive: 2.82 µM [activator, partial curve, poor fit]	
CCOC(=O)c1ccc(NC(=O)NCc2ccccn2)cc1	inconclusive: 25.1 µM [activator, single point]	
COc1cc(O)c(C(CCN2CCCCC2)c2ccc3c(c2)OCO3)c(OC)c1 (stereo not given)	inconclusive: 1.58 µM [activator, full curve]	
Cc1cnn(-c2cc(N/N=C/c3cccc(F)c3)ncn2)c1	inactive	
CCOC(=O)C1CCCN(C(=O)CNC(=O)Cn2ccc3ccccc3c2=O)C1 (stereo not given)	inactive	
CCN1CCN(C2=C(NS(=O)(=O)c3ccc(C)cc3)C(=O)c3ccccc3C2=O)CC1	inactive	
CC(C)(C)n1nnnc1C(c1cccnc1)N1CCN(c2ccccn2)CC1 (stereo not given)	inconclusive: 126 µM [activator, partial curve, poor fit]	
O=C(NCC(c1ccc(F)cc1)N1CCOCC1)c1nn(-c2ccccc2)c(=O)c2ccccc12 (stereo not given)	inconclusive: 56.2 µM [activator, single point]	
Cc1ncc(CN2CCC(CO)(Cc3ccccc3)CC2)s1	inconclusive: 126 µM [activator, single point]	
O=C(C1CC1c1ccccc1)N1CCOCC1 (stereo not given)	inconclusive: 25.1 µM [activator, partial curve, poor fit]	
COc1ccc(S(=O)(=O)N2CCCCC2)cc1NC(=O)CCNC(=O)c1ccco1	inactive	
Cc1ccccc1-c1ccc(CN2C(C(C)C)C(=O)N(Cc3cn(CCC4OCCO4)nn3)CCS2(=O)=O)cc1 (stereo not given)	inactive	
CC1(C)CC(=O)C2=C(C1)OC(N)=C(C#N)C2C1CC=CCC1 (stereo not given)	inconclusive: 39.8 µM [activator, single point]	
Cc1c(C2=CCN(S(=O)(=O)c3ccc(CC(C)C)cc3)CC2)c2ccccc2n1CC(=O)N1CCCC1	active: 44.7 µM	
CN1C(=O)/C(=C/c2coc3ccc(O)cc3c2=O)SC1=S	inactive	
Cc1ccc(C)c(NC(=O)CN2C(=O)COc3ccc(Cl)cc32)c1	inactive	
CCOC(=O)CSc1nnc(CNC(=O)c2ccc(OC)cc2OC)n1C	inconclusive: 50.1 µM [activator, partial curve, poor fit]	
CCCNc1c(NC(=O)c2cccs2)c(=O)oc2ccccc12	inconclusive: 89.1 µM [activator, single point]	
O=C(c1ccc(CN2CCOCC2)cc1)N1CCN(c2ccccc2)CC1	inconclusive: 35.5 µM [activator, single point]	
COc1ccc(CNC(=O)CCC(=O)N2CC3CCCN3c3ccccc32)cc1 (stereo not given)	inconclusive: 158 µM [activator, single point]	
O=C1OC(c2ccc(Br)cc2)=N/C1=C\N1CCCCC1	inactive	

Compound	Potency	activation
Cc1ccc(/C=N/n2c(C)cc(C)c(C#N)c2=O)cc1		inconclusive: 36% [activator]
O=C(Nc1ccc(N2CCN(C(=O)c3ccco3)CC2)c(Cl)c1)c1cc2ccccc2o1	inactive	
COc1ccc(CCN(C)C(=O)C2CCN(C(=O)Nc3ccccc3)CC2)cc1OC	inconclusive: 89.1 µM [activator, partial curve, poor fit]	
Cc1ccc(-n2nc3c(=O)n(CC(=O)NCCC4=CCCCC4)nc(C)c3c2C)cc1	inactive	
CC(C)CN(C(=O)COc1ccc2ccc(=O)oc2c1)C1CCS(=O)(=O)C1 (stereo not given)	inconclusive: 70.8 µM [activator, single point]	
O=C1c2[nH]nc(-c3ccccc3O)c2C(c2cccc(OCc3ccccc3)c2)N1CCO (stereo not given)	inconclusive: 158 µM [activator, single point]	
Cc1ccc(S(=O)(=O)CCC(=O)N(C)c2c(N)n(Cc3ccccc3)c(=O)[nH]c2=O)cc1	inconclusive: 5.62 µM [activator, partial curve, poor fit]	
CCN1CCN(CCNC(=O)c2ccc3c(c2)N(Cc2ccc(F)cc2)C(=O)/C(=C/c2ccccc2)S3)CC1	inactive	
Cc1ccc(CO/N=C\Cc2snc(Sc3ncc(C(F)(F)F)cc3Cl)c2C#N)cc1	inactive	
CCCCn1c(N)c(S(=O)(=O)c2ccc(C)cc2)c2nc3ccccc3nc21	inactive	
O=C(Nc1nnc(Cc2ccc(Cl)cc2)s1)C1CCCO1 (stereo not given)		inconclusive: -52.4% [activator]
CCCN1C(=O)C2(c3ccccc31)c1c(oc3ccc(F)cc3c1=O)C(=O)N2CCCOC(C)C (stereo not given)	inconclusive: 10 µM [activator, partial curve, poor fit]	
COc1ccccc1C(O)(C(=O)NNc1ccccc1C)c1ccccc1OC	inconclusive: 8.91 µM [activator, partial curve, poor fit]	
COc1ccc(-n2c(N)cc(=O)nc2SCC(=O)NC2CCCCC2)cc1		inconclusive: 34.2% [activator]
Cc1cccc(NC(=S)N2CCC(NC(=O)c3ccco3)CC2)c1	inactive	
N/C(CN1CCCCC1)=N\S(=O)(=O)c1cc(Cl)cc(Cl)c1	inconclusive: 2.24 µM [activator, full curve]	
O=C(O)c1cc(S(=O)(=O)N2CCOCC2)ccc1N1CCCCC1	inconclusive: 56.2 µM [activator, partial curve, poor fit]	
Cc1ccccc1CNCc1cccnc1	inconclusive: 5.62 µM [activator, partial curve]	
COc1ccc2c(c1)CC(C(=O)Nc1cc(Cl)ccc1C)CO2 (stereo not given)	inconclusive: 50.1 µM [activator, partial curve, poor fit]	
CC(=O)N1CCN(C(=O)c2cccc(S(=O)(=O)N3c4ccccc4CC3C)c2)CC1 (stereo not given)	inconclusive: 39.8 µM [activator, single point]	
COc1cccc(CN(C)C(=O)C(Cc2ccccc2)NC(=O)c2ccccc2)c1OC (stereo not given)	inactive	
COc1ccc2c(c1)Sc1ccccc1N2CCN(C)C	inconclusive: 3.55 µM [activator, single point]	

Arranged by count of non-hydrogen atoms (rising): 3 of the compounds above
Compound	Potency	activation
COc1ccc(-n2c(N)cc(=O)nc2SCC(=O)NC2CCCCC2)cc1		inconclusive: 34.2% [activator]
CC(=O)N1CCN(C(=O)c2cccc(S(=O)(=O)N3c4ccccc4CC3C)c2)CC1 (stereo not given)	inconclusive: 39.8 µM [activator, single point]	
COc1ccc(CCN(C)C(=O)C2CCN(C(=O)Nc3ccccc3)CC2)cc1OC	inconclusive: 89.1 µM [activator, partial curve, poor fit]	
